Data from publication PMC6925144, “A prospective compound screening contest identified broader inhibitors for Sirtuin 1” (Scientific Reports, 2019).
The full ranking holds about 3,200 compounds; the median of “TSA(without NAD+) / Primary screening (TSA) / delta Tm (K)” is about -0.07, and the highest 2% start at about 0.37. This is one part of the list.

Protein sequences, listed by entry. Tags and fused reporters are not part of them. Residues count along the entry.
UniProt Q96EB6, 2-747 limits assumed: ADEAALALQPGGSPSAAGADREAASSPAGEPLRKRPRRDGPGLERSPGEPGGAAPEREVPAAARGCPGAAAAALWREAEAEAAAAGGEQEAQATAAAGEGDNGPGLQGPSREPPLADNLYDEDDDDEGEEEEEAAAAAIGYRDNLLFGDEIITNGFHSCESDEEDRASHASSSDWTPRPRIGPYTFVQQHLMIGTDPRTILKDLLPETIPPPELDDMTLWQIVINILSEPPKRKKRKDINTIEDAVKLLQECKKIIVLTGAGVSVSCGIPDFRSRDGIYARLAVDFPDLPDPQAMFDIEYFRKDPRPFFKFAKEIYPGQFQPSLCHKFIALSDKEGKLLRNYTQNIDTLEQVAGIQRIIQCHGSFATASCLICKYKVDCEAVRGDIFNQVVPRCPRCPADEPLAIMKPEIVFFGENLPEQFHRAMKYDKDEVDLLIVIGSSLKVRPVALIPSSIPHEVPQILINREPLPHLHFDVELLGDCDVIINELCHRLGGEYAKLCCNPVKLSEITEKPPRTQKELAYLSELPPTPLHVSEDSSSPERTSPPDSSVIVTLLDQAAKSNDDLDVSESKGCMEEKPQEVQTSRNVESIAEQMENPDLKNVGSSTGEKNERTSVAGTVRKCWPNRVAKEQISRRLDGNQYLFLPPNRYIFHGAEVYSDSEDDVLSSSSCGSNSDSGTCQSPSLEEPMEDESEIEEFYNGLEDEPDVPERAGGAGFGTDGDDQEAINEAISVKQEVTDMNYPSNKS

biological target: NAD-dependent deacetylase Sirtuin 1 (human, UniProt Q96EB6); assay: primary screen, delta tm; parameters: single well (n = 1); conditions: 10 µM
Summary of the method: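 Thermal shift of Sirtuin 1 measured without NAD+, compound at 10 µM (n = 1); value is ΔTm, with hits defined as ΔTm > 0.45 K or < −1.5 K. Hits retested at 5, 10, 20 µM (n = 4) and counterscreened on bovine carbonic anhydrase and ABL1 SH2 domain.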

| SMILES | TSA(without NAD+) / Primary screening (TSA) / delta Tm (K) |
| --- | --- |
| COC(=O)c1ccccc1Nc1ccnc(Cl)n1 | -0.15 |
| CCOCCNc1ncnc2ccsc12 | -0.04 |
| CCCC(C(=O)Nc1cc(C)on1)N1CCCC(c2nc(C)no2)C1 (centres unmarked) | -0.07 |
| Cc1ccc2oc(C3(C)Cc4ccccc4C(=O)O3)cc(=O)c2c1 (centres unmarked) | 0.02 |
| Cc1cccc(Cc2cnc(NC(=O)CCNC(=O)c3ccccc3Cl)s2)c1 | -0.12 |
| N#CCn1cc(C(F)(F)F)cc(Cl)c1=O | -0.28 |
| Cc1nc(C(C)NC(=O)c2ccc(Cl)s2)sc1C(=O)O (centres unmarked) | -0.08 |
| Cc1c(C(=O)NCC2CCCc3ccccc32)[nH]c2c1C(=O)CC(C)(C)C2 (centres unmarked) | -0.34 |
| O=C(COC(=O)C1=COCCO1)NC(c1ccccc1)c1ccccc1 | -0.14 |
| CC(C)c1ccccc1-n1c(SCC(=O)Nc2sccc2C(N)=O)nc2ccccc2c1=O | 0.22 |
| O=C1CCCN1Cc1ccc(-c2ccccc2CNC(=O)C23CC4CC(CC(C4)C2)C3)cc1 | -0.28 |
| CC1(CN)CCNC1 (centres unmarked) | -0.13 |
| Cc1sc2ncnc(N3CCC(C(=O)N(C)CC(=O)Nc4ccccc4Cl)CC3)c2c1C | -0.13 |
| O=C(Nc1cccc(S(=O)(=O)N2CCOCC2)c1)C(c1ccccc1)c1ccccc1 | 0.09 |
| NC(=O)C1CCN(c2ncnc3c2oc2ccccc23)CC1 | -0.13 |
| O=C(CSc1nc2ccccc2c(=O)n1CCCO)c1cc(F)ccc1F | -0.15 |
| COc1cc(NC(=O)c2ccco2)c(C(=O)OCC(=O)NC(C)C23CC4CC(CC(C4)C2)C3)cc1OC (centres unmarked) | -0.07 |
| Cc1nc(S)sc1CC(=O)N1CCCC(C)(O)C1 (centres unmarked) | -0.21 |
| N#CCOc1ccccc1/C=C1\Oc2cc(O)ccc2C1=O | -0.11 |
| Cc1c(Cl)cccc1NC(=O)CNc1cc(C(N)=O)c(Cl)cc1Cl | -0.03 |
| Cc1c2c(c(C#N)c3nc4ccccc4n13)CCCC2 | -0.23 |
| CCc1cccc(CC)c1NC(=O)C(c1ccccc1)c1ccccc1 | 0.03 |
| Cc1ccc(C)c(NC(=O)CN(C)C(=O)Cn2cnc3scc(-c4ccc(C)s4)c3c2=O)c1 | -0.02 |
| COc1ccc(C2C(C(=O)/C=C/c3ccco3)=C(O)C(=O)N2CCN2CCOCC2)cc1OC (centres unmarked) | 0.03 |
| COc1cccc(C2C(C(=O)/C=C/c3ccco3)=C(O)C(=O)N2CCN2CCOCC2)c1OC (centres unmarked) | -0.07 |

Another view of part of the listing above:
Cc1c(C(=O)NCC2CCCc3ccccc32)[nH]c2c1C(=O)CC(C)(C)C2 (centres unmarked)
  TSA(without NAD+) / Primary screening (TSA) / delta Tm (K): -0.34
O=C(COC(=O)C1=COCCO1)NC(c1ccccc1)c1ccccc1
  TSA(without NAD+) / Primary screening (TSA) / delta Tm (K): -0.14

Later entries

| SMILES | TSA(without NAD+) / Primary screening (TSA) / delta Tm (K) |
| --- | --- |
| CC1(CN)CC1 | 0.02 |
| FC(F)(F)C1CCCN(c2nsc3ccccc23)C1 (centres unmarked) | 0.06 |
| N#Cc1ncn(-c2ncnc3ccsc23)n1 | 0.16 |
| Cc1ccc(-c2csc3ncnc(N4CCN(C(=O)Cc5nc(C)cs5)CC4)c23)cc1 | -0.12 |
| CC(=O)CN1C(=O)c2ccccc2C1=O | -0.08 |
| Cc1nc(-c2ccc([N+](=O)[O-])cc2)cs1 | -0.43 |
| CC1(c2cnccn2)NC(=O)NC1=O (centres unmarked) | -0.03 |
| O=C(CC1OC(=O)c2ccccc21)Nc1ccc2c(c1)Cc1ccccc1-2 (centres unmarked) | 0.02 |
| O=C(CCOc1ccccc1)Nc1ccc(N2CCN(Cc3ccccc3)CC2)cc1 | 0.15 |
| CC1(C)C(=O)Nc2ccccc2N1C(=O)CNc1cccc2c1CCCC2 | -0.24 |
| O=C(NC1CCCCCC1)c1ccc2c(c1)CC(c1ccccc1)OC2=O (centres unmarked) | 0.05 |
| CC1CCC(C(N)=O)CN1c1ncnc2ccsc12 (centres unmarked) | -0.08 |
| NC(=O)NCc1ccc(C(=O)Nc2nc(-c3c[nH]c(C(N)=O)c3)cs2)cc1 | -0.03 |
| NC(=O)c1oc2ccccc2c1NC(=O)Cc1ccc(Cl)c(Cl)c1 | -0.02 |
| CCCOc1ccc(C2C(C(=O)c3ccc(C)o3)=C(O)C(=O)N2CCCN2CCOCC2)cc1 (centres unmarked) | -0.21 |
| Cc1nc(C)c(C(=O)C2=C(O)C(=O)N(CCCN3CCOCC3)C2c2ccc(Cl)cc2)s1 (centres unmarked) | -0.08 |
| O=c1cc(CSc2nnc(-c3ccccc3)o2)c2cc3c(cc2o1)CCC3 | -0.18 |
| O=C(COC(=O)/C=C/c1cn(-c2ccccc2)nc1-c1cc2ccccc2oc1=O)NC1CCS(=O)(=O)C1 (centres unmarked) | -0.07 |
| COc1ccc(/C=C2/Oc3cc(O)ccc3C2=O)c(OC)c1 | -0.12 |
| O=C(c1ccccc1)C1CCN(c2ncnc3c2oc2ccccc23)CC1 | -0.04 |
| Cc1cc(C)c(C(N)=O)c(N2CCC3CCCCC3C2)n1 (centres unmarked) | -0.23 |
| CC(C)CC(NC(=O)C#Cc1ccccc1)C(=O)Nc1cc[nH]n1 (centres unmarked) | -0.11 |
| O=C(CSc1nnc(-c2sc3ccccc3c2Cl)o1)N1CCN(C(=O)c2ccco2)CC1 | -0.03 |
| O=C(c1ccco1)N1CCC(Nc2nc(-c3ccccc3)nc3ccccc23)CC1 | -0.04 |
| NC(=O)c1c(NC(=O)CN2CCCC(CN3CCN(c4ccccn4)CC3)C2)sc2c1CCCC2 (centres unmarked) | -0.12 |
